Some of the results follow. This is a noisy data set.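 Tm was set to 64 °C where no melting was found, and many curves are irregular.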
Compound: CCc1cnccc1C(=O)Nc1cc2c(cc1F)NC(=O)CC2
Assay: melting temperature shift (DMSO Tm minus MBE1-treated Tm) in cellular thermal proteome profiling; higher = less thermal stabilization by MBE1 (negative = stabilized by MBE1)
Conditions: A375; MBE1 concentration: 100 nM

The chains behind the UniProt entries cited, without tags or fusion partners. Where a name states a change or a piece, a line headed by the entry shows the natural chain unless it says otherwise.
UniProt Q6PII3: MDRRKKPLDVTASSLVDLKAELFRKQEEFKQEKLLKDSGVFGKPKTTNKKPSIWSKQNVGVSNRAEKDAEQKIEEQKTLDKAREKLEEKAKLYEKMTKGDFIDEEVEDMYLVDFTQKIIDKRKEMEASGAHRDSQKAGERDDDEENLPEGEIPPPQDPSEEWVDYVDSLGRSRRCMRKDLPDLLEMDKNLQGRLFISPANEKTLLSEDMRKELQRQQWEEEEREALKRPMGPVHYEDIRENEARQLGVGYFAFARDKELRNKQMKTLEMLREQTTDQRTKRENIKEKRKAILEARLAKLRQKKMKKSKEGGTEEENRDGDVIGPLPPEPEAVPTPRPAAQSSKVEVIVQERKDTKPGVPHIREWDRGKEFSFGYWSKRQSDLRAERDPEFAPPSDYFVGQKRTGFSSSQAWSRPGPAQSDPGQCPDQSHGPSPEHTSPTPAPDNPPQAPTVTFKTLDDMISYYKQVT
UniProt Q7Z7H5: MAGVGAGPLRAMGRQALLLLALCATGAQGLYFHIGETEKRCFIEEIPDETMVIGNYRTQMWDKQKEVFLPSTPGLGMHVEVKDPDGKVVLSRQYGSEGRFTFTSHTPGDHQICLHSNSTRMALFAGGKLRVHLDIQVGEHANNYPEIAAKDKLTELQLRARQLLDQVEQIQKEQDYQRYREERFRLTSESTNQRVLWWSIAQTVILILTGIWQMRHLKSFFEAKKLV
UniProt Q70UQ0: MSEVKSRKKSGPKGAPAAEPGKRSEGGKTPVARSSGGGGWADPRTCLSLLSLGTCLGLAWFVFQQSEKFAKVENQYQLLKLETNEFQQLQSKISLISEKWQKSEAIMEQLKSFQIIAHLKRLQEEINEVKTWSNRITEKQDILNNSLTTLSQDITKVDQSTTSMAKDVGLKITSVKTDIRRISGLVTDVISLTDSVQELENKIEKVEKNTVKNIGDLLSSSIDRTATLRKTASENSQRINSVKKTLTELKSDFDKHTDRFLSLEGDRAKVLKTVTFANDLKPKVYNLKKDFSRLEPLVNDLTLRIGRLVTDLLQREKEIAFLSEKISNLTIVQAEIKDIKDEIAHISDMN
UniProt Q6ZN18: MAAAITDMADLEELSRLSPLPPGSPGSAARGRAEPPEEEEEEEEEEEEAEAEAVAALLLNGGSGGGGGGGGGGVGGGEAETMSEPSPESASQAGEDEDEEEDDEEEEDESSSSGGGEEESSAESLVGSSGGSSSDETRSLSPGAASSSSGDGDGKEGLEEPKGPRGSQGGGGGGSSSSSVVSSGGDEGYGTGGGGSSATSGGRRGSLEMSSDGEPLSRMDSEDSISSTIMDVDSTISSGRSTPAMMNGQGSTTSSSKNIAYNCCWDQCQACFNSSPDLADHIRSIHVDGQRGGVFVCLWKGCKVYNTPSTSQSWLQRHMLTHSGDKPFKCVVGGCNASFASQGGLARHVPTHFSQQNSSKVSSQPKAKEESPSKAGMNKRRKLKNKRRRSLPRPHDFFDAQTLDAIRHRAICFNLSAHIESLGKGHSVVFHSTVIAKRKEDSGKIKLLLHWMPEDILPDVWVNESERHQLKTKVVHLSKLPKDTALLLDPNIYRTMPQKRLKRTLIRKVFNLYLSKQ
UniProt Q86U28: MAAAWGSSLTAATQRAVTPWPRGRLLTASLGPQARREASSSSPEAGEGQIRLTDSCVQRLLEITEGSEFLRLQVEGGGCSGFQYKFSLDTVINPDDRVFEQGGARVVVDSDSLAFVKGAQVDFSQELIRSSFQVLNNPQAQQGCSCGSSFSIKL
UniProt Q6ZV73: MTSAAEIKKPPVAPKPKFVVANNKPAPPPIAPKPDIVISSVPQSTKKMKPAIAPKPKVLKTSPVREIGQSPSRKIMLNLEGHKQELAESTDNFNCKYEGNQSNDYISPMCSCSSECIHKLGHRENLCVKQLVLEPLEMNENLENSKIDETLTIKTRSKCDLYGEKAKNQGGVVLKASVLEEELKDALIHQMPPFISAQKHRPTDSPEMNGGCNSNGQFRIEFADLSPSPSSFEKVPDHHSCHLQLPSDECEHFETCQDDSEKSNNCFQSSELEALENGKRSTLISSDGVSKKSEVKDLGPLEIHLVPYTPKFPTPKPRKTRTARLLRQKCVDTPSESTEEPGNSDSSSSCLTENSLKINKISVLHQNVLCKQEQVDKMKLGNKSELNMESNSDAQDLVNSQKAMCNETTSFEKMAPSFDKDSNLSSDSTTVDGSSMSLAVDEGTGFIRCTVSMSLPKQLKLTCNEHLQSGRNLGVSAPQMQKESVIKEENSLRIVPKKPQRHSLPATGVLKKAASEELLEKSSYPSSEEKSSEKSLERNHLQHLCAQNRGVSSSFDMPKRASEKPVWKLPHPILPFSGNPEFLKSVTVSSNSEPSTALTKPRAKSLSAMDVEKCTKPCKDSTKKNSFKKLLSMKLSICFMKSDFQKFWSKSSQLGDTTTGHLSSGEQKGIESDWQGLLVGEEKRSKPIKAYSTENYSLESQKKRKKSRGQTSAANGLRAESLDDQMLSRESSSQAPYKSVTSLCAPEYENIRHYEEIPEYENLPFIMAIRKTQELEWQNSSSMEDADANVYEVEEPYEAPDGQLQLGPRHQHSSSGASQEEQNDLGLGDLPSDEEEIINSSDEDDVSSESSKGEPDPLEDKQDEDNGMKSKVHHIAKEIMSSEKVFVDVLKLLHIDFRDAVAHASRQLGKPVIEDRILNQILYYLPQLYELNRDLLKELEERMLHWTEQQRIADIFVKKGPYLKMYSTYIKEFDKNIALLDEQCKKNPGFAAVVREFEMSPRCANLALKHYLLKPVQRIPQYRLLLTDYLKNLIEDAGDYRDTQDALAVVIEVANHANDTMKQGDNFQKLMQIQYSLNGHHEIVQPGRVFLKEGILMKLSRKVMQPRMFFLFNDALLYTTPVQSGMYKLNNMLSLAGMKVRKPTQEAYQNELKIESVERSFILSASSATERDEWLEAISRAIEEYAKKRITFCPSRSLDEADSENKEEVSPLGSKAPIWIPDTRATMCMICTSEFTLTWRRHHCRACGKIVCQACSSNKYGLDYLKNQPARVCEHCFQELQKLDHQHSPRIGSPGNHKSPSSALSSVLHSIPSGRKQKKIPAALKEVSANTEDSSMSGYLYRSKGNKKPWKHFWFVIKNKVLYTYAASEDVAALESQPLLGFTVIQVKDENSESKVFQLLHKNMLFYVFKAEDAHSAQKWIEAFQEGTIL
UniProt Q86U38: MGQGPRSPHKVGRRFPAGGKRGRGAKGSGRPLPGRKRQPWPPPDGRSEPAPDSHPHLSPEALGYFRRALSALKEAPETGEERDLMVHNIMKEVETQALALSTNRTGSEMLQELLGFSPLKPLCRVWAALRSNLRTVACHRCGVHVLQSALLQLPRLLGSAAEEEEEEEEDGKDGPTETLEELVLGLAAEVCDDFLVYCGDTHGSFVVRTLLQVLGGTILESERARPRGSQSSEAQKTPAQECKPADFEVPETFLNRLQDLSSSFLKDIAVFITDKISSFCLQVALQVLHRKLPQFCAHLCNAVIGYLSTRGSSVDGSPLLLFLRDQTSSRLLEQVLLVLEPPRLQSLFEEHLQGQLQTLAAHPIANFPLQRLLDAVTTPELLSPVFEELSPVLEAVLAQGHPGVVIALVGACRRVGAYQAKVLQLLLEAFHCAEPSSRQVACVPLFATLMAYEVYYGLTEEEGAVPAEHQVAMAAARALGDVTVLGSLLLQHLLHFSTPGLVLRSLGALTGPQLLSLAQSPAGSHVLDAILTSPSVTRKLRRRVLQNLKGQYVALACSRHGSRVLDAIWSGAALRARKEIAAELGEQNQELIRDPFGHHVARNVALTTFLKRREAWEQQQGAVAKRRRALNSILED
UniProt Q7L2H7, whole entry: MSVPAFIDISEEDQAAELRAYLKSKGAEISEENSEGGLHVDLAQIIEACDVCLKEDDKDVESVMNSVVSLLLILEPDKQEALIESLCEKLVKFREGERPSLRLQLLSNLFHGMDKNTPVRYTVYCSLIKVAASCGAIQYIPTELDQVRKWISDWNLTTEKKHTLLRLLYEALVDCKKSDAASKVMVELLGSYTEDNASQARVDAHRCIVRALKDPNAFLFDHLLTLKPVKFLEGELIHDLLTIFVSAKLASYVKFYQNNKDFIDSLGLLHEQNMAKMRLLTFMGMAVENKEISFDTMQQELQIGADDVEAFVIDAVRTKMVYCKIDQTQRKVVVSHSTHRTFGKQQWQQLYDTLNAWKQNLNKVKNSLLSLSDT
UniProt Q7Z3E5: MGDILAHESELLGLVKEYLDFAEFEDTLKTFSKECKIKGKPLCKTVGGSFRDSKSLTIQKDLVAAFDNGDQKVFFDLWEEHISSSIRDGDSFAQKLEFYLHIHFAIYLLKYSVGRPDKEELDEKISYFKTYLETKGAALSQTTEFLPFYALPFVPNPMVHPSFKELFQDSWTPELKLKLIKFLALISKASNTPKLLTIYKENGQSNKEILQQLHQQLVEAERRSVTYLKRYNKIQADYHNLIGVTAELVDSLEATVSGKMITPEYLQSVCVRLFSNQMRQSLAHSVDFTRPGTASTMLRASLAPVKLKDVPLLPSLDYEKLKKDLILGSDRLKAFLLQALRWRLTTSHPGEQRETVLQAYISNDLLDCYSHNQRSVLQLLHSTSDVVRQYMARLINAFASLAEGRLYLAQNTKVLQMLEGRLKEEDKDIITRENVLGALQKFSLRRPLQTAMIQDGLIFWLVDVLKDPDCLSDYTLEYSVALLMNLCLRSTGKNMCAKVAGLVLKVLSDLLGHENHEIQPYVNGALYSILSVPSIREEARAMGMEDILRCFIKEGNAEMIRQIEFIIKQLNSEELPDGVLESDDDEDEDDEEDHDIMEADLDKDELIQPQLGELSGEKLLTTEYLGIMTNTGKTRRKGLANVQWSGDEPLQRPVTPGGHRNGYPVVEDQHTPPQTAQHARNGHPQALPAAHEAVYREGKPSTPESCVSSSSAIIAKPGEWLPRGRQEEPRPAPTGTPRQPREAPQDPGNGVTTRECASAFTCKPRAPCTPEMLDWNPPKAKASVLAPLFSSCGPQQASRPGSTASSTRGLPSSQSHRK
UniProt Q7Z6J0, whole entry: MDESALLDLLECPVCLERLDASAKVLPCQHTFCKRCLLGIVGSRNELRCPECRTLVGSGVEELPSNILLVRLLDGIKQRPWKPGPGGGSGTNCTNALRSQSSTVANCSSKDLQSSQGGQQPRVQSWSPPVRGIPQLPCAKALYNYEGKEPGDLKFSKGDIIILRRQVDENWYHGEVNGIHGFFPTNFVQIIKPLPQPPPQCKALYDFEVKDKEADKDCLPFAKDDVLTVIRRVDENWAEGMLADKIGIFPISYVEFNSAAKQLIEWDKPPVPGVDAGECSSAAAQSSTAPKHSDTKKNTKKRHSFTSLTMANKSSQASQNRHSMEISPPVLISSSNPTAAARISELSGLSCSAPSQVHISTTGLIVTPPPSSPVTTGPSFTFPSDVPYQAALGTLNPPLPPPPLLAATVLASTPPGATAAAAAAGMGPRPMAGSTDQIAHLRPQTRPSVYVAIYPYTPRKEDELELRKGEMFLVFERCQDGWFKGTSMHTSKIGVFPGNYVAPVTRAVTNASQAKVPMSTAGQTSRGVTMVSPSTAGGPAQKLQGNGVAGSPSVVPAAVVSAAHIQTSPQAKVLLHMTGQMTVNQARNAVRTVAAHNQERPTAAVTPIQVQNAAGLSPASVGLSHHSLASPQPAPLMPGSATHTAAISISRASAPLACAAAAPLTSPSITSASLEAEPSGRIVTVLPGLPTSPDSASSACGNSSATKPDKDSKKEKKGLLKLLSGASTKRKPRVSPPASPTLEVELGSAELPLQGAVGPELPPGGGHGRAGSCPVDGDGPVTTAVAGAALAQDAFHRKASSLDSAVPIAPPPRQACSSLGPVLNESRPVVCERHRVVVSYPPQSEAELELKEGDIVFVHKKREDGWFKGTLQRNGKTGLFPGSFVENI
UniProt Q6PIW4: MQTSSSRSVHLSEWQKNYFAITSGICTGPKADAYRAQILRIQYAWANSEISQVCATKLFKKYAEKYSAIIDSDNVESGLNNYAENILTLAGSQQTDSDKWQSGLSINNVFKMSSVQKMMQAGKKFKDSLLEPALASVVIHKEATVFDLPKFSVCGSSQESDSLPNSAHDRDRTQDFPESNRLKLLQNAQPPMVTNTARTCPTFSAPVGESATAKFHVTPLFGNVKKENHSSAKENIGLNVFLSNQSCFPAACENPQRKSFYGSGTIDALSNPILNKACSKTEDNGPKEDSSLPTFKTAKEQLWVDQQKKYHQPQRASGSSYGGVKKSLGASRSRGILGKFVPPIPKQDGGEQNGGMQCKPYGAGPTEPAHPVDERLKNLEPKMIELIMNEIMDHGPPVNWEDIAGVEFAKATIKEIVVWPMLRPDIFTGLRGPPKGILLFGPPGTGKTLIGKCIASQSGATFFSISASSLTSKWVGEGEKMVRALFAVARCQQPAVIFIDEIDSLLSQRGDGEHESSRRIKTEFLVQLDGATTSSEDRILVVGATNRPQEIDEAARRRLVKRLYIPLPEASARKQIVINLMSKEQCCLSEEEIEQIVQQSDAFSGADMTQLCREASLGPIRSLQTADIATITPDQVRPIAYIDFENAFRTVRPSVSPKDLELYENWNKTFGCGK

| Target | melting temperature shift |
| --- | --- |
| UniProt Q6SZW1 | 0.971 °C |
| UniProt Q7Z7C8 | -0.972 °C |
| UniProt Q6ZSR9 | 0.452 °C |
| PDXDC1 (UniProt Q6P996) | -0.908 °C |
| MRPL55 (UniProt Q7Z7F7) | -0.55 °C |
| BCL9L (UniProt Q86UU0) | -0.893 °C |
| DCXR (UniProt Q7Z4W1) | -0.171 °C |
| STXBP4 (UniProt Q6ZWJ1) | -0.819 °C |
| NT5DC3 (UniProt Q86UY8) | -0.845 °C |
| CCDC174 (UniProt Q6PII3) | -2.83 °C |
| FRA10AC1 (UniProt Q70Z53) | -1.08 °C |
| TMED4 (UniProt Q7Z7H5) | -0.8 °C |
| MAVS (UniProt Q7Z434) | -0.221 °C |
| TRAPPC6B (UniProt Q86SZ2) | -0.208 °C |
| BZW1 (UniProt Q7L1Q6) | -0.546 °C |
| KCTD9 (UniProt Q7L273) | -1.22 °C |
| METTL3 (UniProt Q86U44) | -0.524 °C |
| IKBIP (UniProt Q70UQ0) | -1.7 °C |
| AEBP2 (UniProt Q6ZN18) | -1 °C |

| Target | melting temperature shift |
| --- | --- |
| UBR3 (UniProt Q6ZT12) | 0.104 °C |
| GET4 (UniProt Q7L5D6) | 0.647 °C |
| CLASP1 (UniProt Q7Z460) | -0.935 °C |
| LCLAT1 (UniProt Q6UWP7) | -1.05 °C |
| UniProt Q86U28 | -1.11 °C |
| UniProt Q6ZV73 | 1.22 °C |
| NOP9 (UniProt Q86U38) | -0.135 °C |
| SRGAP1 (UniProt Q7Z6B7) | 1.04 °C |
| SYDE1 (UniProt Q6ZW31) | -1.09 °C |
| EIF3M (UniProt Q7L2H7) | 0 °C |
| ULK3 (UniProt Q6PHR2) | -0.819 °C |
| UniProt Q7Z3E5 | -0.89 °C |
| SH3RF1 (UniProt Q7Z6J0) | -1.51 °C |
| FIGNL1 (UniProt Q6PIW4) | 0.141 °C |
| TLK2 (UniProt Q86UE8) | 1.6 °C |
| UniProt Q7Z7L1 | -0.508 °C |
| UniProt Q86TN4 | 1.8 °C |
| UniProt Q7Z7L7 | -0.778 °C |
| SND1 (UniProt Q7KZF4) | -0.57 °C |

Same assay, conditions: A375; MBE1 concentration: 1 uM

| Target | melting temperature shift |
| --- | --- |
| UniProt Q6SZW1 | 0.574 °C |
| UniProt Q7Z7C8 | 0.232 °C |
| UniProt Q6ZSR9 | 0.36 °C |
| PDXDC1 (UniProt Q6P996) | -0.41 °C |
| MRPL55 (UniProt Q7Z7F7) | -1.28 °C |
| BCL9L (UniProt Q86UU0) | -0.228 °C |
| DCXR (UniProt Q7Z4W1) | 0.666 °C |
| STXBP4 (UniProt Q6ZWJ1) | -1.44 °C |
| NT5DC3 (UniProt Q86UY8) | 0.0268 °C |
| CCDC174 (UniProt Q6PII3) | -3.29 °C |
| FRA10AC1 (UniProt Q70Z53) | -0.429 °C |
| TMED4 (UniProt Q7Z7H5) | -1.36 °C |
| MAVS (UniProt Q7Z434) | 0.121 °C |
| TRAPPC6B (UniProt Q86SZ2) | -0.0604 °C |
| BZW1 (UniProt Q7L1Q6) | 0.00941 °C |
| KCTD9 (UniProt Q7L273) | 0.635 °C |
| METTL3 (UniProt Q86U44) | 0.684 °C |
| IKBIP (UniProt Q70UQ0) | -0.513 °C |
| AEBP2 (UniProt Q6ZN18) | 0.0256 °C |

| Target | melting temperature shift |
| --- | --- |
| UBR3 (UniProt Q6ZT12) | -0.87 °C |
| GET4 (UniProt Q7L5D6) | -0.58 °C |
| CLASP1 (UniProt Q7Z460) | -0.756 °C |
| LCLAT1 (UniProt Q6UWP7) | -0.884 °C |
| UniProt Q86U28 | 0.696 °C |
| UniProt Q6ZV73 | 1.82 °C |
| NOP9 (UniProt Q86U38) | 0.0705 °C |
| SRGAP1 (UniProt Q7Z6B7) | 0.47 °C |
| SYDE1 (UniProt Q6ZW31) | -0.975 °C |
| EIF3M (UniProt Q7L2H7) | -0.461 °C |
| ULK3 (UniProt Q6PHR2) | -0.72 °C |
| UniProt Q7Z3E5 | 0.122 °C |
| SH3RF1 (UniProt Q7Z6J0) | -2.08 °C |
| FIGNL1 (UniProt Q6PIW4) | -0.231 °C |
| TLK2 (UniProt Q86UE8) | 0.965 °C |
| UniProt Q7Z7L1 | -0.0988 °C |
| UniProt Q86TN4 | 0.813 °C |
| UniProt Q7Z7L7 | 0.677 °C |
| SND1 (UniProt Q7KZF4) | -0.54 °C |

Reference: the supplement of paper PMC12595434, “Development of retinoid nuclear receptor pathway antagonists through targeting aldehyde dehydrogenase 1A3” (iScience, 2025)
